The values that follow come from article PMC8384837.

Holding throughout (conditions): yeast three-hybrid, YBZ-1, SC-Leu-His + 0.5 mM 3-AT, 4 days
Experiment [1] deals with T1, PUM1 PUF domain R6-AFF N1043A + Y1044F + Q1047F (UniProt Q14671).
T1 sequence: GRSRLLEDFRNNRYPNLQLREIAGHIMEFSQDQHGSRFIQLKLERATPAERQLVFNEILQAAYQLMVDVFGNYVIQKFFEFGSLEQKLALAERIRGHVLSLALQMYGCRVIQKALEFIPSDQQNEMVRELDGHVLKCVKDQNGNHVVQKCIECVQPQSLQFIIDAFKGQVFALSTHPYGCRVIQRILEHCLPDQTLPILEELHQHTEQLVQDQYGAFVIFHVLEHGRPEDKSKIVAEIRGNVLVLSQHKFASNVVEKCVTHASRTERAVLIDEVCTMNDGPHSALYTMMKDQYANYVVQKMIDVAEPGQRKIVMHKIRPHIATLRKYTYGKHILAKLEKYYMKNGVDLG

Experiment [2] concerns the target T2, PUM1 PUF domain R6-AFG N1043A + Y1044F + Q1047G (UniProt Q14671).
T2 sequence: T1 sequence with F220G

Experiment [3] concerns the target T3, PUM1 PUF domain R6-AWG N1043A + Y1044W + Q1047G (UniProt Q14671).
T3 sequence: T1 sequence with F217W, F220G

Experiment [4] addresses T4, PUM1 PUF domain R6-AYQ N1043A (UniProt Q14671).
T4 sequence: T1 sequence with F217Y, F220Q

Experiment [5] addresses T5, PUM1 PUF domain R6-CFC N1043C + Y1044F + Q1047C (UniProt Q14671).
T5 sequence: T1 sequence with A216C, F220C

The target of experiment [6] is T6, PUM1 PUF domain R6-CFE N1043C + Y1044F + Q1047E (UniProt Q14671).
T6 sequence: T1 sequence with A216C, F220E

The target in experiment [7] is T7, PUM1 PUF domain R6-CFF N1043C + Y1044F + Q1047F (UniProt Q14671).
T7 sequence: T1 sequence with A216C

Experiment [8] deals with T8, PUM1 PUF domain R6-CWG N1043C + Y1044W + Q1047G (UniProt Q14671).
T8 sequence: T1 sequence with A216C, F217W, F220G

Experiment [9] addresses T9, PUM1 PUF domain R6-FHS N1043F + Y1044H + Q1047S (UniProt Q14671).
T9 sequence: T1 sequence with A216F, F217H, F220S

Experiment [10] has as its target T10, PUM1 PUF domain R6-FRL N1043F + Y1044R + Q1047L (UniProt Q14671).
T10 sequence: T1 sequence with A216F, F217R, F220L

Experiment [11] deals with T11, PUM1 PUF domain R6-FWG N1043F + Y1044W + Q1047G (UniProt Q14671).
T11 sequence: T1 sequence with A216F, F217W, F220G

The target of experiment [12] is T12, PUM1 PUF domain R6-FWV N1043F + Y1044W + Q1047V (UniProt Q14671).
T12 sequence: T1 sequence with A216F, F217W, F220V

Experiment [13] concerns the target T13, PUM1 PUF domain R6-FYR N1043F + Q1047R (UniProt Q14671).
T13 sequence: T1 sequence with A216F, F217Y, F220R

Experiment [14] deals with T14, PUM1 PUF domain R6-GHS N1043G + Y1044H + Q1047S (UniProt Q14671).
T14 sequence: T1 sequence with A216G, F217H, F220S

Experiment [15] concerns the target T15, PUM1 PUF domain R6-GYM N1043G + Q1047M (UniProt Q14671).
T15 sequence: T1 sequence with A216G, F217Y, F220M

In experiment [16] the target is T16, PUM1 PUF domain R6-HFF N1043H + Y1044F + Q1047F (UniProt Q14671).
T16 sequence: T1 sequence with A216H

Experiment [17] addresses T17, PUM1 PUF domain R6-IFG N1043I + Y1044F + Q1047G (UniProt Q14671).
T17 sequence: T1 sequence with A216I, F220G

The target in experiment [18] is T18, PUM1 PUF domain R6-IFL N1043I + Y1044F + Q1047L (UniProt Q14671).
T18 sequence: T1 sequence with A216I, F220L

The target in experiment [19] is T19, PUM1 PUF domain R6-IWG N1043I + Y1044W + Q1047G (UniProt Q14671).
T19 sequence: T1 sequence with A216I, F217W, F220G

The target in experiment [20] is T20, PUM1 PUF domain R6-IWL N1043I + Y1044W + Q1047L (UniProt Q14671).
T20 sequence: T1 sequence with A216I, F217W, F220L

Changes are numbered by the printed parent chain. The list shows a part of the results. At the low end of the ranking the order means little.

For the sequence “GGCUAGAACUAGUGGAUCCCCCGGCGCCCGGCGGCUCGAGCCCGGGUAAGUGCAAAUAGUCUGCAUGCCGCCGGGCGCCAUGCCUGCAGGUCGACUCUAGAAAACAUG”, the binding signal (log2 enrichment (interaction score)) in experiment [1] is less than -7.37; in [2] it was -7.63; in experiment [3], -8.4; in experiment [4], less than -6.37; in experiment [5], less than -7.03; in experiment [6], less than -6.82. Also, the binding signal (log2 enrichment (interaction score)) in experiment [7] is less than -6.4; in [8] it was less than -6.95; in experiment [9], less than -6.61; in experiment [10] it was less than -8.14; in experiment [11] it was less than -7.3; in experiment [12], less than -7.02. In addition, the binding signal (log2 enrichment (interaction score)) in experiment [13] was less than -6.55; in experiment [14], less than -7.24; in experiment [15], less than -7.88; in experiment [16], less than -6.68; in [17], less than -7.32; in experiment [18], less than -7.16. The binding signal (log2 enrichment (interaction score)) is less than -6.47 in experiment [19] and less than -6.73 in experiment [20].
